Data source: PubChem BioAssay AID686938 (Drosophila RNAi Screening Center, 2013)
The deposit covers about 23,000 reagents; this is an unselected part of those that have a named target and a result. Of all reagents, 75 (0.33%) got an active call. 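Raw plate signals without normalisation; calls rest on plate z-scores that were not deposited; ratio present for only 364 wells.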 Reagent sequences are not shown. The record does not give: the dose of the treatment.

- Test: 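Knock-downs reducing store-operated calcium influx in Drosophila cells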 (primary screen)
- Cell system: Drosophila S2R+ cells
- Reagents: long dsRNA against Drosophila genes, about 0.25 µg dsRNA per well, roughly 10,000 cells
- Timing: 5 days of knock-down before the calcium assay
- Conditions: thapsigargin (SERCA pump blocker) to empty calcium stores; entry signal taken 4 min after adding it
- Measured: 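Duplicate raw fluo-4 intensities per well from a plate reader, at rest and four minutes after thapsigargin emptied calcium stores; entry-to-rest ratio filled for only some wells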
- Scale: calcium entry signal: higher = stronger calcium signal after store depletion; entry to resting ratio: higher = more calcium entry relative to resting level; resting calcium signal: higher = higher resting calcium signal
- Units: calcium entry signal in fluorescence units; resting calcium signal in fluorescence units
- Rule for the call: 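Called when the plate z-score of the entry-to-rest ratio, mean of duplicates, falls below −3; wells with low overall dye signal (Fmax z below −2) or more than five off-targets excluded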
- Meaning of the calls: active = strongly reduced calcium entry; inactive = no strong reduction

With knock-down of Vps8 [DRSC09705], the record shows calcium entry signal, replicate 1 = 4.01e7; calcium entry signal, replicate 2 = 6.55e7; resting calcium signal, replicate 1 = 2.17e7; resting calcium signal, replicate 2 = 3.11e7; inactive. Gp150 [DRSC04618] gave calcium entry signal, replicate 1 = 4.56e7; calcium entry signal, replicate 2 = 3.84e7; resting calcium signal, replicate 1 = 2.20e7; resting calcium signal, replicate 2 = 1.77e7; inactive. With knock-down of CG15130 [DRSC02430] the results were calcium entry signal, replicate 1 = 5.10e7; calcium entry signal, replicate 2 = 4.86e7; resting calcium signal, replicate 1 = 2.45e7; resting calcium signal, replicate 2 = 2.10e7; inactive. Depletion of betaTub85D [DRSC16910] resulted in: calcium entry signal, replicate 1 = 1.74e7; calcium entry signal, replicate 2 = 2.38e7; resting calcium signal, replicate 1 = 1.18e7; resting calcium signal, replicate 2 = 1.47e7; inactive. After knock-down of Cpes [DRSC04475], the record shows calcium entry signal, replicate 1 = 1.74e7; resting calcium signal, replicate 1 = 1.02e7; inactive. With knock-down of thoc6 [DRSC10528] the results were calcium entry signal, replicate 1 = 5.76e7; calcium entry signal, replicate 2 = 4.96e7; resting calcium signal, replicate 1 = 3.75e7; resting calcium signal, replicate 2 = 2.13e7; inactive.

Against PPP1R15 [DRSC04422], the values are calcium entry signal, replicate 1 = 2.98e7; resting calcium signal, replicate 1 = 1.32e7; inactive. Depletion of Kdsr [DRSC14245] resulted in: calcium entry signal, replicate 1 = 4.53e7; calcium entry signal, replicate 2 = 3.11e7; resting calcium signal, replicate 1 = 2.20e7; resting calcium signal, replicate 2 = 1.61e7; inactive. With knock-down of CG5646 [DRSC15853], the record shows calcium entry signal, replicate 1 = 4.63e7; calcium entry signal, replicate 2 = 5.43e7; resting calcium signal, replicate 1 = 2.15e7; resting calcium signal, replicate 2 = 2.48e7; inactive. CG31999 [DRSC17131] showed calcium entry signal, replicate 1 = 3.81e7; calcium entry signal, replicate 2 = 5.78e7; entry to resting ratio 2; resting calcium signal, replicate 1 = 1.92e7; resting calcium signal, replicate 2 = 2.08e7; inactive. With knock-down of CG31999 [DRSC17133] the results were calcium entry signal, replicate 1 = 3.32e7; calcium entry signal, replicate 2 = 5.37e7; entry to resting ratio 2.1; resting calcium signal, replicate 1 = 1.61e7; resting calcium signal, replicate 2 = 2.01e7; inactive. CG10194 [DRSC02025] scored calcium entry signal, replicate 1 = 3.71e7; resting calcium signal, replicate 1 = 2.04e7; inactive.

2 entries from above, arranged by “calcium entry signal, replicate 1”, lowest first:
betaTub85D [DRSC16910] | calcium entry signal, replicate 1: 1.74e7; calcium entry signal, replicate 2: 2.38e7; resting calcium signal, replicate 1: 1.18e7; resting calcium signal, replicate 2: 1.47e7; Call: inactive
CG15130 [DRSC02430] | calcium entry signal, replicate 1: 5.10e7; calcium entry signal, replicate 2: 4.86e7; resting calcium signal, replicate 1: 2.45e7; resting calcium signal, replicate 2: 2.10e7; Call: inactive
